## Library screening results

Protein sequences, listed by entry. Tags and fused reporters are not part of them.
UniProt E9BF75, entry or part of it: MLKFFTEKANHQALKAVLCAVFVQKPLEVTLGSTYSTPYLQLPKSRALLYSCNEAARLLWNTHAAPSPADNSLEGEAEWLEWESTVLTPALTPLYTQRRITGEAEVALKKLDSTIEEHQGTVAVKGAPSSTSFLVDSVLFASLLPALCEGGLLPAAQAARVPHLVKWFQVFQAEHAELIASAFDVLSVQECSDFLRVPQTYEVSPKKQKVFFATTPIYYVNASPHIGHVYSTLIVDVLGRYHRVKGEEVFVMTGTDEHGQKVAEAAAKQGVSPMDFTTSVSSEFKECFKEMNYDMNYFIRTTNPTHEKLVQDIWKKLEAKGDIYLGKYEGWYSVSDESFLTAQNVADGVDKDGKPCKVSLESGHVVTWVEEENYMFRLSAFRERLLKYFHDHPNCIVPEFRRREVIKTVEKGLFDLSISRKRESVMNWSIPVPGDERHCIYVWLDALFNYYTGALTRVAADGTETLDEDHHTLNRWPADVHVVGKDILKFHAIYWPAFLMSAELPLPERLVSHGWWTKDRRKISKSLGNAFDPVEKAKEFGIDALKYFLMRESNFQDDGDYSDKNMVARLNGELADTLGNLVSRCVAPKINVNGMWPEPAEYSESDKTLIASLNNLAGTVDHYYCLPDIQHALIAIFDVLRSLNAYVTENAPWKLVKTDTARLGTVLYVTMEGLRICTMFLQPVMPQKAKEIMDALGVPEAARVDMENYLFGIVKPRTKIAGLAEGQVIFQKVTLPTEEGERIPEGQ

The values are deposited in ChEMBL (CHEMBL3988442, “University of Dundee, Small-Polar-MMV Screening Library” (2021)).

Mtb heat-shock: 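Assay on Mycobacterium tuberculosis, filed only as a heat shock assay from Cornell; the read-out is not stated. The concentration is filed as 10 mM, unlikely as a test dose, so the dose is not known. Direction is inferred from retests: higher values go with stronger inhibition. About 69,000 compounds were tested under these conditions; 1.4% (about 930) showed 50% or more at least once.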
LdMetRS: 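Primary screen of methionyl-tRNA synthetase; the read-out is not stated. Target: Methionyl-tRNA synthetase (putative), Leishmania donovani (UniProt E9BF75). The test concentration is not given. Values are per cent inhibition. Of about 68,000 compounds tested this way, about 24 (0.035%) reached 50% or more in at least one test.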
Mtb growth Cornell: 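Whole-cell assay for inhibitors of Mycobacterium tuberculosis growth, labelled Cornell in the record; the read-out is not stated. The concentration is filed as 10 mM, unlikely as a test dose, so the dose is not known. Higher means stronger inhibition (inferred from two other growth screens of the library). Size under these conditions: about 53,000 compounds, about 900 of them at 50% or above in at least one test.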

Results are percentages, as filed.
The record does not define 0% and 100%; most values in the screen are far below 50% and negative numbers occur (in some assays of this library far below -100).
Compounds were drawn at random from those tested, without regard to their results.

{"compound": "Cc1cccc(CN2Cc3[nH]nc(COc4cccnc4)c3C2)n1.O=C(O)C(F)(F)F.O=C(O)C(F)(F)F.O=C(O)C(F)(F)F", "Mtb heat-shock": -54.47, "Mtb growth Cornell": 6.689}
{"compound": "CC(=O)N1CCc2[nH]nc(C(=O)N3CCOCC3)c2C1", "Mtb heat-shock": -10.12, "LdMetRS": 4.444}
{"compound": "COCC(=O)N1CCC2(CC1)C(=O)N(Cc1cccnc1)CCN2C.O=C(O)C(F)(F)F.O=C(O)C(F)(F)F", "Mtb heat-shock": -22.77, "Mtb growth Cornell": -29.96}
{"compound": "CCc1ccc2occ(CC(=O)N3CCC4(CCCN(C)C4=O)C3)c2c1", "stereo": "configuration not stated", "Mtb heat-shock": -18.53, "LdMetRS": 14.7, "Mtb growth Cornell": 24.27}
{"compound": "CC(CO)N1CCN(C(=O)OC(C)(C)C)CC1", "stereo": "configuration not stated", "Mtb heat-shock": -0.5094, "LdMetRS": 3.958, "Mtb growth Cornell": 12.18}
{"compound": "OCCOc1ccc(NCc2cc(F)cc3cccnc23)cn1", "Mtb heat-shock": 0.4306, "LdMetRS": 20.91, "Mtb growth Cornell": 2.115}
{"compound": "CCC(C)NC(=O)c1ccn(COc2ccccc2Cl)n1", "stereo": "configuration not stated", "Mtb heat-shock": -42.75, "LdMetRS": 8.355, "Mtb growth Cornell": 17.56}
{"compound": "CCN1CC2(CCOCC2)c2cc(NS(=O)(=O)CC)ccc21.O=C(O)C(F)(F)F", "Mtb heat-shock": 51.54, "Mtb growth Cornell": -4.258}
{"compound": "CC(C)n1ccnc1CN1CCCN(C(=O)c2cscn2)CC1", "Mtb heat-shock": 14.04, "LdMetRS": 14.71}
{"compound": "Cc1nc(-c2cccc(N3CCC(N[C@@H]4CCOC4)CC3)c2)cs1", "Mtb heat-shock": 4.411, "LdMetRS": 13.4, "Mtb growth Cornell": 22.78}
{"compound": "O=C(c1cnccn1)N1CCC2(CCN(Cc3ccsc3)C2)CC1", "Mtb heat-shock": -10.02, "LdMetRS": 12.33, "Mtb growth Cornell": 19.66}
{"compound": "CNC(=O)Cc1cc2nccc(-c3c(OC)cccc3OC)n2n1", "Mtb heat-shock": -20.46, "LdMetRS": 13.83, "Mtb growth Cornell": 7}
{"compound": "CN(C)S(=O)(=O)N1CCC(c2ccncc2)CC1", "Mtb heat-shock": -0.6627, "LdMetRS": 9.677, "Mtb growth Cornell": 6.685}
{"compound": "O=c1[nH]c(-c2ccc(F)c(F)c2)nc2c1CCNC2", "Mtb heat-shock": 3.785, "LdMetRS": 13.87}
{"compound": "COCC1CC2(CCN(Cc3ccco3)CC2)CN1C(C)C", "stereo": "configuration not stated", "LdMetRS": 7.19}
{"compound": "CC(c1cccnc1)N1CCN(C(=O)NCc2cnn(C)c2)CC1", "stereo": "configuration not stated", "Mtb heat-shock": -1.406, "LdMetRS": -0.4963, "Mtb growth Cornell": 12.19}
{"compound": "Cc1nc(N)sc1C(=O)N1Cc2ccccc2OC2(CCOCC2)C1", "Mtb heat-shock": -6.317, "LdMetRS": 3.859, "Mtb growth Cornell": -56.78}
{"compound": "CC(Cn1ccnc1)NC(=O)Nc1ccccn1", "stereo": "configuration not stated", "Mtb heat-shock": -35.38, "LdMetRS": 11.58}
{"compound": "CS(=O)(=O)N1C[C@@H](Oc2ccccn2)[C@H]2OCCC[C@H]21", "LdMetRS": 7.801}
{"compound": "CC1CN(C(=O)CN(Cc2ccccc2)C2CC2)CCO1", "stereo": "configuration not stated", "Mtb heat-shock": 6.603, "LdMetRS": 16.57}
{"compound": "CN(Cc1ccccc1)C(=O)Cn1nc(N2CCSCC2)ccc1=O", "Mtb heat-shock": 17.51, "LdMetRS": 14.42, "Mtb growth Cornell": 29.05}
{"compound": "Cc1cc(CS(=O)(=O)c2ccccc2)no1", "Mtb heat-shock": 8.571, "LdMetRS": 10.57, "Mtb growth Cornell": 4.053}
{"compound": "CC1CC(=O)c2cc(C(=O)N3CCN(C)CC3)c(=O)[nH]c2C1", "stereo": "configuration not stated", "Mtb heat-shock": -16.3, "LdMetRS": 17.56, "Mtb growth Cornell": 4.231}
{"compound": "CCn1c(N)nc2cc(C(=O)NCCc3ccccc3C)cnc21", "Mtb heat-shock": 8.475, "LdMetRS": 11.33, "Mtb growth Cornell": 9.938}
{"compound": "COCCN1CCc2c(c(COc3cccnc3)nn2C)C1", "LdMetRS": 7.235}
{"compound": "Cc1cncc(C(=O)N2CC[C@@]3(C[C@H](NS(C)(=O)=O)CCO3)C2)c1", "LdMetRS": 15.92}
{"compound": "Cc1cc(C(=O)NS(=O)(=O)Cc2ccon2)c(C)n1C(C)C", "Mtb heat-shock": 6.514, "LdMetRS": 20.96, "Mtb growth Cornell": 19.2}
{"compound": "Cc1cccnc1C(=O)N1CCCC(c2[nH]ncc2S(C)(=O)=O)C1", "stereo": "configuration not stated", "Mtb heat-shock": -6.509, "LdMetRS": 14.34}
{"compound": "Cc1n[nH]c(C2CN(CC(=O)NCc3cccs3)CCO2)n1", "stereo": "configuration not stated", "Mtb heat-shock": -13.21, "LdMetRS": 22.75, "Mtb growth Cornell": 22.77}

4 of the entries, repeated:

CC(CO)N1CCN(C(=O)OC(C)(C)C)CC1 (configuration not stated) read Mtb heat-shock: -0.5094%; LdMetRS: 3.958%; Mtb growth Cornell: 12.18%.
CC1CN(C(=O)CN(Cc2ccccc2)C2CC2)CCO1 (configuration not stated) read Mtb heat-shock: 6.603%; LdMetRS: 16.57%.
Cc1cccnc1C(=O)N1CCCC(c2[nH]ncc2S(C)(=O)=O)C1 (configuration not stated) read Mtb heat-shock: -6.509%; LdMetRS: 14.34%.
Cc1cc(C(=O)NS(=O)(=O)Cc2ccon2)c(C)n1C(C)C read Mtb heat-shock: 6.514%; LdMetRS: 20.96%; Mtb growth Cornell: 19.2%.